Values from PubChem BioAssay AID1053208 (Peter MacCallum Cancer Centre, 2014).
Shown is a random part of about 17,000 reagents. 788 of all reagents (4.7%) count as active. 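Calls rest on z-score classes alone; an extra cut-off of viability at most 70% of control was not applied to them.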 Further read-outs or replicates are left out here. Reagent sequences are not shown.

- Screen: 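Synthetic lethal interactions between gene loss and doxorubicin in osteosarcoma cells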 (primary screen)
- Cells: mouse osteosarcoma cells, early-passage culture from an engineered mouse model of fibroblastic bone tumour
- Knock-down reagent: siRNA pool against mouse genes, 40 nM
- Time to read-out: about 120 h (48 h before drug, then 72 h with drug)
- Conditions: doxorubicin 100 nM for 72 h, roughly 30-40% inhibitory dose
- Measurement: 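Viability read as ATP luminescence after 72 h of 100 nM doxorubicin or none, duplicate wells averaged, scaled to non-targeting siRNA, then expressed as robust z-scores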
- Direction: viability z-score with doxorubicin: higher = more viable cells under doxorubicin; viability z-score without drug: higher = more viable cells with knock-down alone
- Active means: 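a pool counts as active when its viability z-score with doxorubicin is -2 or below and its z-score without drug lies between -2 and 2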

Target gene | combined z-score class | viability z-score with doxorubicin | viability z-score without drug | Call
Zc3h18 (zinc finger CCCH-type containing 18) | no change with or without drug | 0.79 | 0.84 | inactive
Otop2 (otopetrin 2) | no change with or without drug | -1.8 | -1.18 | inactive
Ecm1 (extracellular matrix protein 1) | no change with or without drug | -0.45 | 0 | inactive
Slc13a4 | high cell count without drug only | 0.22 | 2.02 | inactive
Vps39 (VPS39 HOPS complex subunit) | no change with or without drug | -0.9 | -0.67 | inactive
Gsdmc (gasdermin C) | low cell count with and without drug | -3.15 | -2.7 | inactive
Eprs1 (glutamyl-prolyl-tRNA synthetase 1) | no change with or without drug | -0.22 | -1.85 | inactive
Snx31 (sorting nexin 31) | no change with or without drug | -0.22 | -0.17 | inactive
A130004G07Rik (retired record) | no change with or without drug | -1.12 | -0.84 | inactive
Uqcrc1 (ubiquinol-cytochrome c reductase core protein 1) | no change with or without drug | -0.56 | -1.18 | inactive
Csnk2b (casein kinase 2, beta polypeptide) | no change with or without drug | 1.12 | -0.51 | inactive
Hdhd5 (haloacid dehalogenase like hydrolase domain containing 5) | no change with or without drug | -1.8 | 0 | inactive
Opa1 (OPA1, mitochondrial dynamin like GTPase) | no change with or without drug | 0.56 | -0.17 | inactive
Ric1 (RAB6A GEF complex partner 1) | no change with or without drug | -0.67 | -0.67 | inactive
Tnip2 (TNFAIP3 interacting protein 2) | no change with or without drug | 0.67 | 1.01 | inactive
Klra16 (killer cell lectin-like receptor, subfamily A, member 16) | no change with or without drug | 0.56 | 1.52 | inactive
D430033A06RIK | no change with or without drug | -0.45 | -0.51 | inactive
H2-Q2 (histocompatibility 2, Q region locus 2) | no change with or without drug | -1.35 | -1.52 | inactive
Clip1 (CAP-GLY domain containing linker protein 1) | no change with or without drug | -1.35 | -1.18 | inactive
Tspyl1 (testis-specific protein, Y-encoded-like 1) | no change with or without drug | -0.34 | -0.84 | inactive
Dmrt3 (doublesex and mab-3 related transcription factor 3) | high cell count with doxorubicin only | 2.02 | 1.18 | inactive
Lalba (lactalbumin, alpha) | no change with or without drug | -1.12 | -0.17 | inactive
Evx2 (even-skipped homeobox 2) | no change with or without drug | -1.12 | 0.51 | inactive
Ctcf (CCCTC-binding factor) | no change with or without drug | 0.67 | -0.51 | inactive
Smyd1 (SET and MYND domain containing 1) | no change with or without drug | -0.45 | 0.17 | inactive
Zfy1 (zinc finger protein 1, Y-linked) | high cell count with doxorubicin only | 3.15 | 1.85 | inactive
Or10z1 (olfactory receptor family 10 subfamily Z member 1) | no change with or without drug | 0 | -0.51 | inactive
Timm44 (translocase of inner mitochondrial membrane 44) | low cell count with doxorubicin only | -3.6 | 0.34 | active
Kcnk13 (potassium channel, subfamily K, member 13) | no change with or without drug | 0.11 | 0.17 | inactive
Fpr2 (formyl peptide receptor 2) | no change with or without drug | -0.22 | 0.84 | inactive
Asb5 (ankyrin repeat and SOCs box-containing 5) | no change with or without drug | 0.56 | -1.18 | inactive
Pole (polymerase (DNA directed), epsilon) | low cell count with doxorubicin only | -2.25 | -0.84 | active
Tnxb (tenascin XB) | no change with or without drug | -0.45 | -0.17 | inactive
1700020N01Rik (RIKEN cDNA 1700020N01 gene) | no change with or without drug | 0.45 | -0.84 | inactive
Or4c102 (olfactory receptor family 4 subfamily C member 102) | no change with or without drug | -1.01 | 0.51 | inactive
Socs5 (suppressor of cytokine signaling 5) | high cell count with doxorubicin only | 2.59 | -0.17 | inactive
Ung (uracil DNA glycosylase) | low cell count with doxorubicin only | -2.02 | -1.18 | active
Abhd4 (abhydrolase domain containing 4) | no change with or without drug | 0.45 | -0.17 | inactive
Slc35b4 | no change with or without drug | 1.8 | 1.18 | inactive
Rad51b (RAD51 paralog B) | no change with or without drug | 1.57 | -0.51 | inactive
Or5w20 (olfactory receptor family 5 subfamily W member 20) | low cell count with and without drug | -3.37 | -2.02 | inactive
Htr2b (5-hydroxytryptamine (serotonin) receptor 2B) | high cell count with doxorubicin only | 2.02 | 0.17 | inactive
Slc1a3 | no change with or without drug | -0.45 | -1.18 | inactive
Ptprb (protein tyrosine phosphatase receptor type B) | no change with or without drug | 1.57 | 1.69 | inactive
Speer4a1 (spermatogenesis associated glutamate (E)-rich protein 4A1) | low cell count with and without drug | -2.47 | -2.7 | inactive
Or2n1d (olfactory receptor family 2 subfamily N member 1D) | no change with or without drug | 0 | -0.51 | inactive
Ibsp (integrin binding sialoprotein) | low cell count without drug only | -0.22 | -2.02 | inactive
Or8b51 (olfactory receptor family 8 subfamily B member 51) | no change with or without drug | 1.12 | -0.17 | inactive
4632434I11RIK | no change with or without drug | 0.56 | 0.51 | inactive
Htr5a (5-hydroxytryptamine (serotonin) receptor 5A) | no change with or without drug | 0.22 | -1.69 | inactive
Nkg7 (natural killer cell group 7 sequence) | no change with or without drug | 0.67 | -0.84 | inactive
Fundc1 (FUN14 domain containing 1) | no change with or without drug | 0.45 | -0.84 | inactive
Spink8 (serine peptidase inhibitor, Kazal type 8) | no change with or without drug | 1.35 | 1.52 | inactive
Gpm6a (glycoprotein m6a) | no change with or without drug | -0.67 | 0.17 | inactive
Sox6 (SRY (sex determining region Y)-box 6) | no change with or without drug | 0.34 | -0.51 | inactive
Strm (striamin) | no change with or without drug | -0.22 | 0.17 | inactive
Impg2 (interphotoreceptor matrix proteoglycan 2) | no change with or without drug | -0.22 | -0.51 | inactive
Lypd9 (LY6/PLAUR domain containing 9) | no change with or without drug | -1.12 | -1.52 | inactive
Pkig (protein kinase inhibitor, gamma) | no change with or without drug | 0.45 | 0.51 | inactive
Pdcd10 (programmed cell death 10) | no change with or without drug | 1.12 | 0 | inactive
Dram2 (DNA-damage regulated autophagy modulator 2) | no change with or without drug | 0 | 0 | inactive
Akirin1 (akirin 1) | no change with or without drug | 0.11 | -0.17 | inactive
Rtbdn (retbindin) | no change with or without drug | -0.67 | -1.35 | inactive

Reprinted from the entries so far for reference:
Target gene | combined z-score class | viability z-score with doxorubicin | viability z-score without drug | Call
Htr2b (5-hydroxytryptamine (serotonin) receptor 2B) | high cell count with doxorubicin only | 2.02 | 0.17 | inactive
Slc1a3 | no change with or without drug | -0.45 | -1.18 | inactive
Ptprb (protein tyrosine phosphatase receptor type B) | no change with or without drug | 1.57 | 1.69 | inactive
Speer4a1 (spermatogenesis associated glutamate (E)-rich protein 4A1) | low cell count with and without drug | -2.47 | -2.7 | inactive
Or2n1d (olfactory receptor family 2 subfamily N member 1D) | no change with or without drug | 0 | -0.51 | inactive
